Experimental data reported in patent US9440980B2, “Remedy for diabetes” (EA Pharma Co., Ltd., priority 2007, dated 2016).

Experiments:
[1] = tested on: trimeric GTP-binding protein β subunit (Gβγ2-Myc); experiment: Gβ binding activity of each compound by inhibition of 3H-labeled Compound 1 binding (SPA); set-up: species or system human
Experimental: The insect cell Sf21 coexpressing the Gβ1, Gβ2, Gβ3, or Gβ4, and Myc-Gγ2 and 6×His-Gαi1 was prepared in the same manner as Example 19 (8) and stored in the frozen state at −80° C. Using the frozen insect cell Sf21 expressing the subtype Gβ1, Gβ2, Gβ3, or Gβ4, 2.5×10^8 cells were thawed, suspended in 4 ml of a lysis buffer, and centrifuged (10000 G, 20 minutes, 4° C.) to obtain a pellet. The pellet was suspended in 5 ml of an extraction buffer containing 1% sodium cholate (50 mM HEPES, pH 8.0, 3 mM MgCl2, 1 mM 2-mercaptoethanol, 10 μM GDP, 50 mM NaCl, 1% sodium cholate). The suspension was stirred at 4° C. for 1 hour to extract protein and centrifuged (100000 G, 20 minutes, 4° C.), whereby the supernatant was obtained as a Gβγ72-Myc extract solution.
The binding assay of the ^3H-labeled Compound 1 to each Gβγ2-Myc was carried out in the same manner as Example 21 except for adding 0.1% Triton X-100 to an RBA buffer and for changing plate size. […] The mixture was shaken for 1 hour and left at room temperature overnight, and the radioactivity was measured by Topcount. […]

[2] = tested on: PI3-kinase β (p110β/p85α); experiment: PI3-kinase subtype activity with or without Gβ1γ2-Myc (PIP3 production, 32P-ATP, TLC); type: biochemical; conditions: 30 μM; presence of Gβ1γ2-Myc; FIG. 13
[3] = biological target: phosphoinositide 3-kinase γ heterodimer (Homo sapiens, UniProt P48736); conditions: phosphatidylinositol substrate; presence of the trimeric GTP-binding protein β subunit; Bonacci et al.; cited from earlier work
[4] = tested on: Akt phosphorylation in human liver-derived HLF cell; conditions: HLF cells, 15 minutes treatment
[5] = tested on: PI3-kinase α (p110α/p85α); experiment: PI3-kinase subtype activity in the presence of Gβ1γ2-Myc (PIP3 production, 32P-ATP, TLC); type: biochemical; conditions: 30 μM, FIG. 13
isolated adipocytes = experiment: Measurement of glucose uptake activity in isolated rat adipocytes (2-[14C]-deoxy-D-glucose); type: cell-based
Experimental: A male Wistar rat was decapitated and exsanguinated, and then a paratesticular adipose tissue was resected therefrom after laparotomy. The tissue was cut in a KRH (Krebs-Ringer HEPES: 130 mM NaCl, 4.7 mM KCl, 1.2 mM KH2PO4, 1.2 mM MgSO4, 1 mM CaCl2, 25 mM HEPES) containing a BSA (bovine serum albumin), a collagenase (type I) was added thereto, and the resultant was subjected to a digestive treatment for about 40 minutes to obtain isolated adipocytes. The buffer was replaced to remove the collagenase, and a 2% BSA/KRH solution was added thereto, whereby the adipocytes were floated again to obtain a adipocytes suspension.
The glucose uptake activity of a test substance compound was evaluated in accordance with Non-Patent Document 14: Simpson et al., Annual Review of Biochemistry, 55, 1059, (1986). […] The glucose uptake activity was evaluated by measuring the amount of 2-[^14C(U)]-deoxy-D-glucose uptaken per unit time. […] Dinonyl phthalate was superposed over the solution, the resultant was centrifuged to separate the fat cells from the buffer, and the amount of the 2-[^14C(U)]-deoxy-D-glucose contained in the fat cell layer was measured by a liquid scintillation counter, whereby the uptaken glucose amount was determined. […]

SMILES: COc1cc2c(c(OC)c1OC)-c1ccc(OC)c(=O)cc1[C@@H](N)CC2 [N-deacetylcolchicine, reference compound]
- competition with the glucose uptake enhancer for binding to the trimeric GTP-binding protein β subunit [1]: not competitive
- effect on PI3-kinase β activity [2]: no effects
- effect on enzymatic activity of phosphoinositide 3-kinase γ heterodimer [3]: enhances the enzymatic activity of phosphoinositide 3-kinase γ heterodimer
- Akt phosphorylation activity (in words) [4]: did not exhibit Akt phosphorylation activity
- effect on PI3-kinase α activity [5]: no effects
- glucose uptake activity (in words) (isolated adipocytes): did not exhibit glucose uptake activity
